US20240417443A1
Numbering of substitutions follows the chain as printed. Results are given in words; binding and its absence hold for the method and conditions named. Some binding calls cover weakened binding; strength is not graded here. For some assays here: Tags and fused reporters may be left off the sequences shown.

Protein sequences, listed by entry. Tags and fused reporters are not part of them. Residues count along the entry.
UniProt P05113, residues 20-134: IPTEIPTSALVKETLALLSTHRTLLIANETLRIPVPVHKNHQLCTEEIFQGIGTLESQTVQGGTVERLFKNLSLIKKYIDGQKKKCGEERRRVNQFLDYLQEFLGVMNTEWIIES

Key:
[1] = molecular target: T1, IL5Rat(K186A) tag of pSB_0540 (human) (UniProt Q01344); test: binding of recombinant IL-5 to transduced Jurkat cells (FIG. 10)
T1 sequence: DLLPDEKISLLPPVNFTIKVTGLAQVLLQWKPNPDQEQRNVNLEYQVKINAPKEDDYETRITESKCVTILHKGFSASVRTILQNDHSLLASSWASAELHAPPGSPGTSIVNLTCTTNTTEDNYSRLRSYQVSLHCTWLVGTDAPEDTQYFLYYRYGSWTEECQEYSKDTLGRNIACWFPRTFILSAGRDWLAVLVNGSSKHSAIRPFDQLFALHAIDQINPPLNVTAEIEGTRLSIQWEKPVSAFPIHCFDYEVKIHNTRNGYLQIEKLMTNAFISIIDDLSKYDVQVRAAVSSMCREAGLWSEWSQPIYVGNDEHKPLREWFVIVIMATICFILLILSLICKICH

[2] = molecular target: T2, IL5Rat(R188A) tag of pSB_0541 (human) (UniProt Q01344); test: as above
T2 sequence: T1 sequence with A186K, R188A

[3] = molecular target: T3, IL5Rat(K186A, R188A) tag of pSB_0546 (human) (UniProt Q01344); test: as above
T3 sequence: T1 sequence with R188A

[4] = molecular target: T4, IL5Ra(K186A, R188A, M295A) tag of pSB_0552 (human) (UniProt Q01344); test: as above
T4 sequence: T1 sequence with R188A, M295A

[5] = molecular target: T5, IL5Rat(S3) tag of pSB_0198 (human) (UniProt Q01344); test: binding of recombinant IL-5 to transduced Jurkat cells (FIG. 13B); reference tag
T5 sequence: T1 sequence with A186K

[6] = molecular target: IL5RatEC_Her2(TMIC)(S1) tag of pSB_0590 (human) (UniProt Q01344); test: as above
[7] = molecular target: T5, IL5Rat(S3) tag of pSB_0198 (human); test: binding of recombinant IL-5 to transduced Jurkat cells (FIG. 10); reference tag
[8] = molecular target: T5, IL5Rat(S3) tag of pSB_0198 (human); test: binding of recombinant IL-5 to transduced Jurkat cells (FIG. 10 legend); reference tag
[9] = molecular target: T1, IL5Rat(K186A) tag of pSB_0540 (human); test: binding of recombinant IL-5 to transduced Jurkat cells (FIG. 13B)
[10] = molecular target: IL5Rat(K186A)EC_Her2(TMIC)(S1) tag of pSB_0693 (human) (UniProt Q01344); test: as above
[11] = molecular target: T1, IL5Rat(K186A) tag of pSB_0540 (human); test: binding of recombinant IL-5 to transduced Jurkat cells (FIG. 10 legend)
[12] = molecular target: T2, IL5Rat(R188A) tag of pSB_0541 (human); test: as above
[13] = molecular target: T3, IL5Rat(K186A, R188A) tag of pSB_0546 (human); test: as above
[14] = molecular target: T4, IL5Ra(K186A, R188A, M295A) tag of pSB_0552 (human); test: as above

Measured: binding

recombinant IL-5 (from UniProt P05113 20-134) (ligand)
binds: all assays above
